Measured values: patent publication US12173030
Changes are numbered by the printed parent chain. These are yes or no findings as the source states them, for the method shown. Some results given as binding are weak or reduced against the parent protein; the word gives no strength.

B1: Clone 1 anti-human MOG scFv (scFv, not shown: small tags and cut ends)
scFv: EVQLLESGGGLVQPGGSLRLSCAASGFTFSSYAMSWVRQAPGKGLEWVSSISDYGNTTAYADSVKGRFTISRDNSKNTLYLQMNSLRAEDTAVYYCAKNANYFDYWGQGTLVTVSSGGGGSGGGGSGGGGSTDIQMTQSPSSLSASVGDRVTITCRASQSISSYLNWYQQKPGKAPKLLIYDASSLQSGVPSRFSGSGSGTDFTLTISSLQPEDFATYYCQQTSTYPGTFGQGTKVEIK
B2: Clone 3 anti-human MOG scFv (scFv, not shown: small tags and cut ends)
scFv: EVQLLESGGGLVQPGGSLRLSCAASGFTFSSYAMSWVRQAPGKGLEWVSSISSYGSYTGYADSVKGRFTISRDNSKNTLYLQMNSLRAEDTAVYYCAKNGYAFDYWGQGTLVTVSSGGGGSGGGGSGGGGSTDIQMTQSPSSLSASVGDRVTITCRASQSISSYLNWYQQKPGKAPKLLIYGASALQSGVPSRFSGSGSGTDFTLTISSLQPEDFATYYCQQNDASPNTFGQGTKVEIK
B3: Clone 6 anti-human MOG scFv (scFv, not shown: small tags and cut ends)
scFv: EVQLLESGGGLVQPGGSLRLSCAASGFTFSSYAMSWVRQAPGKGLEWVSTISTYGDYTTYADSVKGRFTISRDNSKNTLYLQMNSLRAEDTAVYYCAKGSYTFDYWGQGTLVTVSSGGGGSGGGGSGGGGSTDIQMTQSPSSLSASVGDRVTITCRASQSISSYLNWYQQKPGKAPKLLIYSASYLQSGVPSRFSGSGSGTDFTLTISSLQPEDFATYYCQQSNATPSTFGQGTKVEIK
B4: Clone 10 anti-human MOG scFv (scFv, not shown: small tags and cut ends)
scFv: EVQLLESGGGLVQPGGSLRLSCAASGFTFSSYAMSWVRQAPGKGLEWVSGITNYGYTTYYADSVKGRFTISRDNSKNTLYLQMNSLRAEDTAVYYCAKSSYSFDYWGQGTLVTVSSGGGGSGGGGSGGGGSTDIQMTQSPSSLSASVGDRVTITCRASQSISSYLNWYQQKPGKAPKLLIYAASALQSGVPSRFSGSGSGTDFTLTISSLQPEDFATYYCQQSAYYPDTFGQGTKVEIK
B5: Clone 13 anti-human MOG scFv (scFv, not shown: small tags and cut ends)
scFv: EVQLLESGGGLVQPGGSLRLSCAASGFTFSSYAMSWVRQAPGKGLEWVSSINSAGGSTYYADSVKGRFTISRDNSKNTLYLQMNSLRAEDTAVYYCAKNSAYFDYWGQGTLVTVSSGGGGSGGGGSGGGGSTDIQMTQSPSSLSASVGDRVTITCRASQSISSYLNWYQQKPGKAPKLLIYDASNLQSGVPSRFSGSGSGTDFTLTISSLQPEDFATYYCQQTDTYPTTFGQGTKVEIK
B6: Clone 17 anti-human MOG scFv (scFv, not shown: small tags and cut ends)
scFv: B3 scFv with T50S, Y54S, D56S, T59A, S100G, Y185T, N224D, A225G, T226N, S228T

biological target: T1, human myelin oligodendrocyte glycoprotein (MOG) (human) (UniProt Q16653); assay: QC ELISA, purified scFv-myc-6xHis on target MOG
T1 sequence (looked up): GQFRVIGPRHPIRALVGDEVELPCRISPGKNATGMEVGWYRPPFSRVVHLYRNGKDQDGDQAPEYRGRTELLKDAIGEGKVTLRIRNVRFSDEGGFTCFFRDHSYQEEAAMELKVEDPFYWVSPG

binding, binds:
B1
B2
B3
B4
B5
B6

biological target: T1, human myelin oligodendrocyte glycoprotein (MOG) (human); assay: soluble ELISA with cell lysates (30 C and 37 C)

binding, binds:
B1
B2
B3
B4
B5
B6

biological target: T1, human myelin oligodendrocyte glycoprotein (MOG) (human); assay: monoclonal phage ELISA, positive clones

binding, binds:
B1
B2
B3
B4
B5
B6

biological target: T1, human myelin oligodendrocyte glycoprotein (MOG) (human); assay: QC ELISA titration, seven concentrations, scFv induced at 16 C (FIG. 8)

binding, binds:
B1
B2
B3
B4
B5
B6
